Measurements: PubChem BioAssay AID1347423 (Functional Genomics Laboratory (NCATS/FGL), 2020)
The campaign covered roughly 52,000 sequences. About 210 (0.4%) were called active.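 Rule for the calls: active = gene whose silencing raises cell survival under the drug, median off-target-corrected z-score across its silencing RNAs 2 or more; inactive = the rest.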 This is one part of the list.

Test: Resistance to Poly (ADP-Ribose) Polymerase inhibitor: Gene Identification via Genome-wide siRNA Screen
Conditions: mouse BRCA2 R2336H ES cells, olaparib, CellTiter-Glo viability; stronger effect = higher value
Outline: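 Mouse BRCA2 R2336H ES cells were reverse-transfected with siRNA (20 nM final), treated at 48 h with 500 nM olaparib, and read by CellTiter-Glo after 72 h. Scores: MAD-based z per siRNA, median per gene, seed off-target correction.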

Sequence	z-score
CCUCUUUAGUCCUCUAAAATT against Rab15	inactive: 0.275
GCAUGAUGACAGGAAGGACTT against Olfr527	inactive: 0.0208
GGCCAUAAAGUUAACAACATT against Tbx19	inactive: -0.252
GGAAAUUUUGAACCUGACATT against D12Ertd771e	inactive: -0.773
GGAUGCGCUGAUAUCAGUATT against Olfr370	inactive: -0.821
GGAAUCCUCUAAAUGACCUTT against V1rd22	inactive: 1.74
GAGCUAUGUUCUUGGAUGATT against V1ra4	inactive: -0.0592
GGUGCUAAGUUCAAAGUCGTT against Pdcd11	inactive: 0.421
GGGAGGUGCAGAUAGGAUUTT against Csrp1	inactive: 1.55
GAUGCACACGUGGGAAGACTT against 2210021J22Rik	inactive: -1.92
GGCUCUGAAUGUCACAACCTT against Il2rb	inactive: 0.572
GGGACCACUGGACAUUGAATT against Cxadr	inactive: -1.45
GGAGAAAGAAAUCCUUCUGTT against Bag2	inactive: 0.213
GGCAAACAUUUCAAAUACATT against Tgm4	inactive: -1.17
GGAAGUCUCUGUACAUCUUTT against Chuk	inactive: -1.22
GGGCUUCUUCCUCGUCUCUTT against Indo	inactive: 0.313
CGGUCAUUUGAAGUAGGAATT against Mum1	inactive: -0.378
GCCCAGAUGGGUUAAUUUCTT against Fzd7	inactive: 0.746
GCGUGUCAGGGAGUAUUACTT against Igbp1b	inactive: 1.09
CCAGAUGGGCCCAAUGCAUTT against Ccl7	inactive: -1.18
CCUUUAUUUCUGUGAAUCUTT against Olfr1467	inactive: 1.31
GGUCGGAACUCAGUUUAUCTT against Abcg2	inactive: 0.342
CGGUUAUUGUACCUAAAGCTT against Olfr827	inactive: 0.523
GGACCAUAAAUGAGACCCATT against Sulf2-pending	inactive: -0.0958
GCUGAAAGUAUUCAUGUAATT against Sec13l1	inactive: -2.96
GGGAAACAGAAGUAUCUAUTT against Ar	inactive: -0.616
GGAAGAAAUGGACACCAGATT against Slc12a6	inactive: 2.16

Looked up one by one from the entries so far:
Sequence	z-score
GGAAAUUUUGAACCUGACATT against D12Ertd771e	inactive: -0.773
GGUCGGAACUCAGUUUAUCTT against Abcg2	inactive: 0.342
GAGCUAUGUUCUUGGAUGATT against V1ra4	inactive: -0.0592

Next part:

Sequence	z-score
CGGACAUAGUCCAUCAUUCTT against Aig1	inactive: 1.65
GCGUAAUUCCAGCAGAUGUTT against Mepe	inactive: -1.4
CCUACAGUAUGUGGCAGAUTT against Grb7	inactive: -1.69
GGACAAUUUUGACGAGAUGTT against Tubg1	inactive: -1.68
GGAUGUAGAGAAAAUGAUCTT against LOC13909	inactive: -0.291
CCCUCAUCAAGGGCAUAGATT against Gpd1l	inactive: -1.39
GCAAUCAUUUCUUCAUCUATT against Olfr148	inactive: 1.54
GCACAGUACCAUAACGGCUTT against Pbef1	inactive: -1.21
GCCUCUAUAUCUUUCACUGTT against Olfr1209	inactive: -0.276
GGAAAUGCCUAAUUUUCACTT against Snapc4	inactive: 0.708
CCGAAUAGUAGAUAUUAGATT against Zbtb1	inactive: 0.12
GGUCAUAUCUCACCUAAGUTT against Nxph3	inactive: 0.179
CCACCUCCAUCGAUGUUAUTT against Pamci	inactive: -2.93
GGGAGAUUAAUCAAGAACUTT against Ccnc	inactive: 0.109
CCGGGUCAGGACAAUUCAUTT against Hsd17b1	active: 1.29
CGUGUUGAUAACUUUAACGTT against Abca9	inactive: 0.739
GGGCCUUUAUGAGUCACACTT against H2-Aa	inactive: 0.0743
GAAGCCUAAUCCCUUAAUCTT against Oas1g	inactive: -0.581
GCCACGUGAUAGUAAUAAATT against Psmd12	inactive: 0.694
GCUUCUCAGACAAAUAUGGTT against S3-12	inactive: 0.617
GGUUAUUUCUGAAAUGUGCTT against Fbxl4	inactive: 0.381
GGAAACAUGGGUUUAUUUGTT against Bche	inactive: 0.142
CCCACAGUUGCAAAUUGUGTT against Olfr804	inactive: 0.137
GGGUACAACUCUUUGAAGATT against Mnat1	inactive: 0.446
GGUGGACAACCAGUUCUACTT against Mapk10	inactive: -0.405
CCAAUGGUGUAAUUAGAAATT against Olfr571	inactive: 0.143
GGAAAAAAUCAAGAGUGAATT against D0HXS9928E	inactive: -0.671

Quoted from the listing (four entries):
Sequence	z-score
GAGCUAUGUUCUUGGAUGATT against V1ra4	inactive: -0.0592
GGUGCUAAGUUCAAAGUCGTT against Pdcd11	inactive: 0.421
GGGAGGUGCAGAUAGGAUUTT against Csrp1	inactive: 1.55
GAUGCACACGUGGGAAGACTT against 2210021J22Rik	inactive: -1.92

(cont.)

Sequence	z-score
GGUCAAAUCUCGACAAAUCTT against Ptprm	inactive: 0.462
CGAUGACAGGAAAGUUCGATT against 9130211I03Rik	inactive: 0.0266
GGCAUCCUUGUUCACAUCCTT against Zfy1	inactive: 1
GGAGAACACAAAAUCAUGGTT against Xrn2	inactive: 3.03
GGCCUCACAAAAGAACACCTT against Nppb	inactive: -0.13
GGUCUCUGUCUCCAAGAAATT against 2810012G03Rik	inactive: -0.0984
GGACUUUCGAGACAAGCUGTT against Barhl1	inactive: -1.1
GGCAUUUAUGUCGAACAAGTT against Mbtd1	inactive: -0.529
CGUUCACUUUUGAAAACGUTT against Bysl	inactive: -0.147
GGGUUGUAGCAUUUAAUUATT against D17Ertd488e	inactive: 0.139
GCUUAUCCUGGGAAACUUCTT against Fcnb	inactive: 0.562
GGAACUACCUUGUAAAAUUTT against Rbp7	inactive: -1.25
GGUGUGCGCAGCAUCAAGATT against Guk1	inactive: 1.6
GGUAACCCUUACAGAUAUGTT against 4921507P07Rik	inactive: -0.67
GCGUAUGCUUUUGUGCACATT against Anapc7	inactive: 0.341
GCUUAUCCAGUGUAUUGUGTT against Amfr	inactive: -0.838
CGCCCUAUACCGAUACUUUTT against Kcnk5	inactive: -0.0982
GGAUUUUAGUGAAUUCCAUTT against Asah1	inactive: -0.732
GCAUGCUGAGGGACACAGUTT against 1810055G02Rik	inactive: -0.274
GGCAAGAAAUUCUUCAGCATT against Siat8c	inactive: 1.29
GGAAGUAAAGGGAUUUAACTT against 1110054N06Rik	inactive: 0.25
GCCUUGACAGAGGUAUUGATT against Ovgp1	inactive: -0.824
GAAAAAUAUCCUGGCAGUGTT against Olfr824	inactive: -0.568
CCAGCUAUACGAAGACUUCTT against 2810435D12Rik	inactive: 1.13
GGUACUCCUCCAUUAUCACTT against Olfr631	inactive: -0.0173
GGUGUCGAUGUCCUUUAUGTT against B130055L09Rik	inactive: -0.122
GGUUCUCCUCCCAAAUUAGTT against Nptxr	inactive: -0.127

Sequence	z-score
GCUCCAUUUAUGCUCCCAGTT against Zfp71-rs1	inactive: 0.108
GGCCAAGUCUGGAAUCACUTT against D1Ertd396e	inactive: -1.44
GGGCACUUAUUGCUACCUGTT against Wfs1	inactive: 2.27
GGUUCUUAUUUCACUAUUCTT against Nmu	inactive: -0.386
GGAGAAGAUGAGAGAAUUUTT against Tph1	inactive: 0.357
GGUCUGUAUGUCAUUUAUCTT against Ywhag	inactive: -0.162
GGAAUUCCAAUGUUACCAUTT against Mfi2	inactive: 1.28
GGAUAACCAUAUACUUCUGTT against 1110006O24Rik	inactive: 0.935
GGUGUUACCCUCCUUAGAGTT against 5730494N06Rik	inactive: -0.203
GGCACUUAUGACACCUACATT against Fkbp10	inactive: -1.87
GGCUUUUGAAAAUGACUACTT against Galnt5	inactive: 0.266
GGAAGUGGAGGAAAAGAAGTT against Pdcd7	inactive: -0.748
GGCCCAAGAGAAUAUCCAGTT against MGC129481	inactive: 0.847
CCCAAUUUGGAGCUAUCAGTT against C130090K23Rik	inactive: -1.41
GGAACUGAUAGUAAUUGCCTT against Il7	inactive: -0.933
GGACUAUGGGAUUUCAGUUTT against 5730420B22Rik	inactive: -1.15
CCUUUUUAUCGCUUUACUGTT against Scn10a	inactive: 0.0445
CCCACAGAUCAGAUGCAUCTT against Abhd6	inactive: -0.0376
GCACGGAUGCAGUGAAUAGTT against MGC90611	inactive: -3.31
GCGUGGUGAUAGAAGAUAUTT against Pcdhgb8	inactive: -1.91
GCUGACCAUGGAGUAUAACTT against D3Ertd789e	inactive: 1.14
GUCUUUUAUACUUUGGUGGTT against Olfr1255	inactive: 1.43
GCAGAGUAUUUGAUUCUUATT against BC022641	inactive: -1.24
CCAUCUCCUUUUCAGGGUGTT against Olfr747	inactive: 0.591
